# From the supplement of paper PMC11348887
# Structures can show the parent of a compound that is named as a salt. The list shows a part of the results. Most entries show no effect beyond the scatter of the controls.
# System: hPSC-derived cortical neurons (WA09)
# Experiment: nucleus area z-score vs screen plate; higher = larger nuclei (more mature)
# Conditions: 5 µM; treatment: days 7-14 after plating, readout day 21
row,SMILES,nucleus area z-score
1,CCc1cncnc1N1CCN(Cc2nc3ccc(C(F)(F)F)cc3[nH]2)CC1,0.163
2,C#Cc1cccc(Nc2ncnc3cc(OCCOC)c(OCCO)cc23)c1,1.18
3,CC1(C)[C@@H](O[C@H]2O[C@H](C(=O)O)[C@@H](O)[C@H](O)[C@H]2O[C@@H]2O[C@H](C(=O)O)[C@@H](O)[C@H](O)[C@H]2O)CC[C@]2(C)[C@H]3C(=O)C=C4[C@@H]5C[C@@](C)(C(=O)O)CC[C@]5(C)CC[C@@]4(C)[C@]3(C)CC[C@@H]12 [Ammonium Glycyrrhizinate],0.405
4,COc1cccc(-c2cc(F)ccc2C2Cc3nc(N)nc(C)c3C(=O)N2)n1 (configuration not stated),-7.12

# System: hPSC-derived cortical neurons (WA09)
# Experiment: total neurite length per nucleus (MAP2) z-score; higher = more neurite growth
# Conditions: 5 µM; treatment: days 7-14 after plating, readout day 21
row,SMILES,total neurite length per nucleus (z-score)
1,CNCCc1ccccn1 [Betahistine 2HCl],1.49
2,Cc1cccc(-c2[nH]c(CNc3ccccc3F)nc2-c2ccc3ncnn3c2)n1,-2.02
3,COC(=O)N[C@H](C(=O)N1CCC[C@H]1c1ncc(-c2ccc(-c3ccc(-c4cnc([C@@H]5CCCN5C(=O)[C@@H](NC(=O)OC)C(C)C)[nH]4)cc3)cc2)[nH]1)C(C)C,0.347
4,CCCNCC(O)COc1ccccc1C(=O)CCc1ccccc1 (configuration not stated) [Propafenone HCl],-0.591
5,O=C1NC(=O)C(c2cnc3ccccn23)=C1c1cn2c3c(cc(F)cc13)CN(C(=O)N1CCCCC1)CC2,-0.447
6,Oc1cccc(O)c1 [Resorcinol],1.18
7,Cc1c(C(=O)N2CCOc3ccc(-c4ccc(N)nc4)cc3C2)ccc(S(C)(=O)=O)c1F,-0.491
8,Nc1nc(=O)c2c([nH]1)NCC(CNc1ccc(C(=O)N[C@@H](CCC(=O)O)C(=O)O)cc1)N2C=O (some centres not stated) [Leucovorin Calcium Pentahydrate],0.309

# Laid out differently: entries from further up.
row	SMILES	total neurite length per nucleus (z-score)
5	O=C1NC(=O)C(c2cnc3ccccn23)=C1c1cn2c3c(cc(F)cc13)CN(C(=O)N1CCCCC1)CC2	-0.447
6	Oc1cccc(O)c1 [Resorcinol]	1.18
